Data as given in publication doi:10.1101/2022.09.22.509106.
Results are given in words; binding and its absence hold for the method and conditions named. Tags and fused reporters may be left off the sequences shown.

Target: T1, purified human complement C2 (human) (UniProt P06681)
T1 sequence: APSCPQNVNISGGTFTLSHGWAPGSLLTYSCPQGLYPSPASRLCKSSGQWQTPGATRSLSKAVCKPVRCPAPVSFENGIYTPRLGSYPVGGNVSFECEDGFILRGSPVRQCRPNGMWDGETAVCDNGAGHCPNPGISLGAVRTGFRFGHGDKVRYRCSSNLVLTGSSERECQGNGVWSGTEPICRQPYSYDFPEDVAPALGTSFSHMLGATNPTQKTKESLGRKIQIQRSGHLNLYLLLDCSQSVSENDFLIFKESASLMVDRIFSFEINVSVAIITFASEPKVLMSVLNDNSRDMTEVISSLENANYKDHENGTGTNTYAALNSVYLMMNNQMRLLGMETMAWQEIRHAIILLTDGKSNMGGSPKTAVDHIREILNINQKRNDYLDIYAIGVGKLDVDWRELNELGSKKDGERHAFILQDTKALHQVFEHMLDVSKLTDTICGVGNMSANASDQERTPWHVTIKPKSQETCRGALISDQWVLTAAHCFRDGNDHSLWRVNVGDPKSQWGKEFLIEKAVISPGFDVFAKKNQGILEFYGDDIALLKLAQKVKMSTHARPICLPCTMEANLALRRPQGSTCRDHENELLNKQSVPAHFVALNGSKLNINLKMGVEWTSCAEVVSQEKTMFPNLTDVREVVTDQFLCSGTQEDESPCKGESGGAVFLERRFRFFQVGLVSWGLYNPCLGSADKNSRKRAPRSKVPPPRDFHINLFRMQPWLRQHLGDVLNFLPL
Experiment: ELISA

B1: neuronal pentraxin 1 (Nptx1), purified recombinant, His-tagged (protein, UniProt Q15818 23-432)
chain: QDFGPTRFICTSVPVDADMCAASVAAGGAEELRSSVLQLRETVLQQKETILSQKETIRELTAKLGRCESQSTLDPGAGEARAGGGRKQPGSGKNTMGDLSRTPAAETLSQLGQTLQSLKTRLENLEQYSRLNSSSQTNSLKDLLQSKIDELERQVLSRVNTLEEGKGGPRNDTEERVKIETALTSLHQRISELEKGQKDNRPGDKFQLTFPLRTNYMYAKVKKSLPEMYAFTVCMWLKSSATPGVGTPFSYAVPGQANELVLIEWGNNPMEILINDKVAKLPFVINDGKWHHICVTWTTRDGVWEAYQDGTQGGSGENLAPYHPIKPQGVLVLGQEQDTLGGGFDATQAFVGELAHFNIWDRKLTPGEVYNLATCSTKALSGNVIAWAESHIEIYGGATKWTFEACRQIN
**Q.** B1 was tested. Which binding did it give?
**A.** no binding (tested: 4 µg/mL)

B2: neuronal pentraxin 2 (Nptx2), purified recombinant, His-tagged (protein, UniProt P47972 16-431)
chain: GAQDSPAPGSRFVCTALPPEAVHAGCPLPAMPMQGGAQSPEEELRAAVLQLRETVVQQKETLGAQREAIRELTGKLARCEGLAGGKARGAGATGKDTMGDLPRDPGHVVEQLSRSLQTLKDRLESLEHQLRANVSNAGLPGDFREVLQQRLGELERQLLRKVAELEDEKSLLHNETSAHRQKTESTLNALLQRVTELERGNSAFKSPDAFKVSLPLRTNYLYGKIKKTLPELYAFTICLWLRSSASPGIGTPFSYAVPGQANEIVLIEWGNNPIELLINDKVAQLPLFVSDGKWHHICVTWTTRDGMWEAFQDGEKLGTGENLAPWHPIKPGGVLILGQEQDTVGGRFDATQAFVGELSQFNIWDRVLRAQEIVNIANCSTNMPGNIIPWVDNNVDVFGGASKWPVETCEERLLDL
**Q.** With B2 as the binder, how does the binding read?
**A.** no binding (tested: 4 µg/mL)
